Measured values: publication PMC9098461
Where two headings read alike, the source gives them in different places. Results are given in words; binding and its absence hold for the method and conditions named. Binding seen in cells or lysates may run through a third protein. These calls come from enrichment with a bait or labelling near it, and not all partners need be listed. Sequences can lack the tags named with a protein.

The chains behind the UniProt entries cited, without tags or fusion partners.
UniProt P14735: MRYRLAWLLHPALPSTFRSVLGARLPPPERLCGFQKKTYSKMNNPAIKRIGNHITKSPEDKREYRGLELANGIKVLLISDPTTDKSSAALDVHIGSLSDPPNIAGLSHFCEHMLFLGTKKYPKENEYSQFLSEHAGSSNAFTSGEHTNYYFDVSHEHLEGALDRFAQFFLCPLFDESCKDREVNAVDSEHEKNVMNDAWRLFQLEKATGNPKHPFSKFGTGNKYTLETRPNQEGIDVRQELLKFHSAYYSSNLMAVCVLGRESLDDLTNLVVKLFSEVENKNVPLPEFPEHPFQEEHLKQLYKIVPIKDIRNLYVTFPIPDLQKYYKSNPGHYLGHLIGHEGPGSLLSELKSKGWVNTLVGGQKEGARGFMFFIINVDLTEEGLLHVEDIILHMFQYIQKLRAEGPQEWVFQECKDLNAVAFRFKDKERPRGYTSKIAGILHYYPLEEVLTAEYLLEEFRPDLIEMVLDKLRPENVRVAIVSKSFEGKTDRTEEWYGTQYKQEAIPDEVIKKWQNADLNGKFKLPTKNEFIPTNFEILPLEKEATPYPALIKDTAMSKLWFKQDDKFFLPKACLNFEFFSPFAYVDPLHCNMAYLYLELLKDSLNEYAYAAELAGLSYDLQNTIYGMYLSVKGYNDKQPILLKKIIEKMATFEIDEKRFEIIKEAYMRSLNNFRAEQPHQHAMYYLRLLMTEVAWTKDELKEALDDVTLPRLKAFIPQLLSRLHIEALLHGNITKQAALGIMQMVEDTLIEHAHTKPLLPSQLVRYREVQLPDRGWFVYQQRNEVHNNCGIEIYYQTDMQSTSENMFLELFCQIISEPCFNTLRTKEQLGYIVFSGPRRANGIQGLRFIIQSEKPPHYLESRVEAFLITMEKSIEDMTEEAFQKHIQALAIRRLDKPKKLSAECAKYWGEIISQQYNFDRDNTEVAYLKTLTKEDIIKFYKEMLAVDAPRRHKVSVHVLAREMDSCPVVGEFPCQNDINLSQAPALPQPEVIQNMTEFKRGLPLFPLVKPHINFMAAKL
UniProt P35579: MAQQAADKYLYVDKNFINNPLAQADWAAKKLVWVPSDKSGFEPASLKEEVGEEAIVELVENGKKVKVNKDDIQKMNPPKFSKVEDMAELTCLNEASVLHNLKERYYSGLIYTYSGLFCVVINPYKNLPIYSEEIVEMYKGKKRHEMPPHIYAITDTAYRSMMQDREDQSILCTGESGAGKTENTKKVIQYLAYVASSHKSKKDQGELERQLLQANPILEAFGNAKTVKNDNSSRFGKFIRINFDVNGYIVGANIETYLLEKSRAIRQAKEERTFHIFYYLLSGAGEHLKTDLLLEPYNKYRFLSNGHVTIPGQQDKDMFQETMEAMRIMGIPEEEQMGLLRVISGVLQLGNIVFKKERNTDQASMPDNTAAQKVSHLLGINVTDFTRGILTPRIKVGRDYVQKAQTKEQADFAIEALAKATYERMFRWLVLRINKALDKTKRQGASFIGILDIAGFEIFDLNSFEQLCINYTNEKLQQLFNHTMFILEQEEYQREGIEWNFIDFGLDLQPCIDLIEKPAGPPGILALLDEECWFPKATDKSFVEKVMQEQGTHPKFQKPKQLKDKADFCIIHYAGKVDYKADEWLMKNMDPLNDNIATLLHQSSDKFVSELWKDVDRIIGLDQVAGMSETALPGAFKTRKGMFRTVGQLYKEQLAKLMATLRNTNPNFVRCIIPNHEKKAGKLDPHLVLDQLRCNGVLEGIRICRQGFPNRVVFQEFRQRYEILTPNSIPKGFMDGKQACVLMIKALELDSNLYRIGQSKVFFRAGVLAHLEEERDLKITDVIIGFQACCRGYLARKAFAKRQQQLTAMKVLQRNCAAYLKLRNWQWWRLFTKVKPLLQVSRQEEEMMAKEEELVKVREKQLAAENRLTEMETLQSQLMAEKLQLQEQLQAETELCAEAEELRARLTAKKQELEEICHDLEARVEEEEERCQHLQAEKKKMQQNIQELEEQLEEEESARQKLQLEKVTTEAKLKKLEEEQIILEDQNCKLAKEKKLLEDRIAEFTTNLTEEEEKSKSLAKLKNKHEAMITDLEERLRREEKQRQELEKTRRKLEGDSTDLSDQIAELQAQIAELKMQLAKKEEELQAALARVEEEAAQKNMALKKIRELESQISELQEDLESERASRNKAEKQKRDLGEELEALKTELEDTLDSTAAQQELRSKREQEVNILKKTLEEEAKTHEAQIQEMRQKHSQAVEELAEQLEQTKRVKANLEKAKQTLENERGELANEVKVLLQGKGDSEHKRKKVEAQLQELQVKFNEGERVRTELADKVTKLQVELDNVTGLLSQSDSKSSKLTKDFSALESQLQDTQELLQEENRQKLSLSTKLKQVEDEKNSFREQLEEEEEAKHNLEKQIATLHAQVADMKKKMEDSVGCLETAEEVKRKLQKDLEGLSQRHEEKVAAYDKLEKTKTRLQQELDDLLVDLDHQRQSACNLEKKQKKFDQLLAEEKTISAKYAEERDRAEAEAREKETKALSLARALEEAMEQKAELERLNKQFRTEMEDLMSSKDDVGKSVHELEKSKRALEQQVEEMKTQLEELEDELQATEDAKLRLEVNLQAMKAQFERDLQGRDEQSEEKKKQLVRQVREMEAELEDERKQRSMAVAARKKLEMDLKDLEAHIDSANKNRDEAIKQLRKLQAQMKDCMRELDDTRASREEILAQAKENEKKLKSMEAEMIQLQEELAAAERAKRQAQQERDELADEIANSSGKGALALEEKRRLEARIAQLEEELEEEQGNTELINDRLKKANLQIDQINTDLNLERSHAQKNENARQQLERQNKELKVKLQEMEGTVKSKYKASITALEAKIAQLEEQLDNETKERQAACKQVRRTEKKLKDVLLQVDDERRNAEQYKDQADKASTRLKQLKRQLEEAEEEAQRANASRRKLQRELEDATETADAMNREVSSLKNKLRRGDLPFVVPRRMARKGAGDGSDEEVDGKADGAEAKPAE

T1: His-p47-FLAG (UniProt O35987)
T1 sequence: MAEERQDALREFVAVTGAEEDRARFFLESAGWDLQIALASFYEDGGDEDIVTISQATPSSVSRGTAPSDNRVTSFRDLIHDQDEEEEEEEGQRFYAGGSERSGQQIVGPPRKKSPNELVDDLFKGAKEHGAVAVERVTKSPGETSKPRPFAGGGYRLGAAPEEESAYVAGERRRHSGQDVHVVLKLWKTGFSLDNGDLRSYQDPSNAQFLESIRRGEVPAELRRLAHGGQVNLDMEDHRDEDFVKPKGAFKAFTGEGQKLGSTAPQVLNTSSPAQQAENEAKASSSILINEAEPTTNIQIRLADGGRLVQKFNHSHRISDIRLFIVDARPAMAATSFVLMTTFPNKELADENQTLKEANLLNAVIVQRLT


How the values were obtained:
[1] = target: T1, His-p47-FLAG; assay: affinity purification with mass spectrometry; eluates of the p47 co-IP with ADP-BeFx against mock co-IPs without His-p47-FLAG (n = 3); label-free quantitation, SAINT; only the target purified
[2] = target: T1, His-p47-FLAG; assay: as above; remark: listed apart in the source

Molecule | binding [1] | binding [2]
insulin-degrading enzyme (from UniProt P14735 1-1019) | binds | 
UBXN7 (protein, UniProt O94888 1-489) MAAHGGSAASSALKGLIQQFTTITGASESVGKHMLEACNNNLEMAVTMFLDGGGIAEEPSTSSASVSTVRPHTEEEVRAPIPQKQEILVEPEPLFGAPKRRRPARSIFDGFRDFQTETIRQEQELRNGGAIDKKLTTLADLFRPPIDLMHKGSFETAKECGQMQNKWLMINIQNVQDFACQCLNRDVWSNEAVKNIIREHFIFWQVYHDSEEGQRYIQFYKLGDFPYVSILDPRTGQKLVEWHQLDVSSFLDQVTGFLGEHGQLDGLSSSPPKKCARSESLIDASEDSQLEAAIRASLQETHFDSTQTKQDSRSDEESESELFSGSEEFISVCGSDEEEEVENLAKSRKSPHKDLGHRKEENRRPLTEPPVRTDPGTATNHQGLPAVDSEILEMPPEKADGVVEGIDVNGPKAQLMLRYPDGKREQITLPEQAKLLALVKHVQSKGYPNERFELLTNFPRRKLSHLDYDITLQEAGLCPQETVFVQERN |  | binds
UBXN1 (protein, UniProt Q04323 1-297) MAELTALESLIEMGFPRGRAEKALALTGNQGIEAAMDWLMEHEDDPDVDEPLETPLGHILGREPTSSEQGGLEGSGSAAGEGKPALSEEERQEQTKRMLELVAQKQREREEREEREALERERQRRRQGQELSAARQRLQEDEMRRAAEERRREKAEELAARQRVREKIERDKAERAKKYGGSVGSQPPPVAPEPGPVPSSPSQEPPTKREYDQCRIQVRLPDGTSLTQTFRAREQLAAVRLYVELHRGEELGGGQDPVQLLSGFPRRAFSEADMERPLQELGLVPSAVLIVAKKCPS |  | binds

Second part, the molecule after the results:

binding [1] | binding [2] | Molecule
binds |  | myosin-9 (from UniProt P35579 1-1960)
 | binds | ornithine aminotransferase (protein, UniProt P04181 26-439) TSVATKKTVQGPPTSDDIFEREYKYGAHNYHPLPVALERGKGIYLWDVEGRKYFDFLSSYSAVNQGHCHPKIVNALKSQVDKLTLTSRAFYNNVLGEYEEYITKLFNYHKVLPMNTGVEAGETACKLARKWGYTVKGIQKYKAKIVFAAGNFWGRTLSAISSSTDPTSYDGFGPFMPGFDIIPYNDLPALERALQDPNVAAFMVEPIQGEAGVVVPDPGYLMGVRELCTRHQVLFIADEIQTGLARTGRWLAVDYENVRPDIVLLGKALSGGLYPVSAVLCDDDIMLTIKPGEHGSTYGGNPLGCRVAIAALEVLEEENLAENADKLGIILRNELMKLPSDVVTAVRGKGLLNAIVIKETKDWDAWKVCLRLRDNGLLAKPTHGDIIRFAPPLVIKEDELRESIEIINKTILSF
